PubChem BioAssay AID686938 – Drosophila RNAi Screening Center | 2013
The screen tested about 23,000 reagents; below is a random part of those that have a named target and a result. In the full data, 75 (0.33%) were called active. 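Raw plate signals without normalisation; calls rest on plate z-scores that were not deposited; ratio present for only 364 wells.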 Not given: the dose of the treatment.

Test: 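Knock-downs reducing store-operated calcium influx in Drosophila cells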 (primary screen)
System: Drosophila S2R+ cells
Reagent: long dsRNA against Drosophila genes, about 0.25 µg dsRNA per well, roughly 10,000 cells
Time to read-out: 5 days of knock-down before the calcium assay
Conditions: thapsigargin (SERCA pump blocker) to empty calcium stores; entry signal taken 4 min after adding it
Detection: 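Per-well fluo-4 fluorescence in two replicates, unnormalised, measured in resting cells and 4 min after store depletion by the SERCA blocker thapsigargin; ratio of the two present in few wells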
Direction: calcium entry signal: higher = stronger calcium signal after store depletion; entry to resting ratio: higher = more calcium entry relative to resting level; resting calcium signal: higher = higher resting calcium signal
Rule for the call: 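Called when the plate z-score of the entry-to-rest ratio, mean of duplicates, falls below −3; wells with low overall dye signal (Fmax z below −2) or more than five off-targets excluded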
Calls: active = strongly reduced calcium entry; inactive = no strong reduction

The first 3 records, ahead of the listing:
calcium entry signal, replicate 1 (fluorescence units) | calcium entry signal, replicate 2 (fluorescence units) | entry to resting ratio | resting calcium signal, replicate 1 (fluorescence units) | resting calcium signal, replicate 2 (fluorescence units) | outcome | Target gene | dsRNA
4.52e7 | 5.55e7 | – | 2.26e7 | 2.43e7 | inactive | CG13502 | DRSC04147
2.92e7 | 5.52e7 | – | 1.40e7 | 2.17e7 | inactive | Rcd4 (Reduction in Cnn dots 4) | DRSC02597
4.00e7 | 4.40e7 | – | 1.89e7 | 2.05e7 | inactive | abo (abnormal oocyte) | DRSC02926

The list itself, from the start:
calcium entry signal, replicate 1 (fluorescence units) | calcium entry signal, replicate 2 (fluorescence units) | entry to resting ratio | resting calcium signal, replicate 1 (fluorescence units) | resting calcium signal, replicate 2 (fluorescence units) | outcome | Target gene | dsRNA
4.52e7 | 5.55e7 | – | 2.26e7 | 2.43e7 | inactive | CG13502 | DRSC04147
2.92e7 | 5.52e7 | – | 1.40e7 | 2.17e7 | inactive | Rcd4 (Reduction in Cnn dots 4) | DRSC02597
4.00e7 | 4.40e7 | – | 1.89e7 | 2.05e7 | inactive | abo (abnormal oocyte) | DRSC02926
3.30e7 | 3.00e7 | 2 | 1.62e7 | 1.31e7 | inactive | CG14417 | DRSC18638
5.01e7 | 3.90e7 | – | 2.33e7 | 1.63e7 | inactive | Cpr49Ab (Cuticular protein 49Ab) | DRSC05341
3.42e7 | 4.17e7 | – | 1.57e7 | 1.91e7 | inactive | CG2712 | DRSC18589
2.65e7 | 4.92e7 | – | 1.39e7 | 1.88e7 | inactive | ND-24L (NADH dehydrogenase (ubiquinone) 24 kDa subunit-like) | DRSC10650
5.32e7 | 3.50e7 | – | 2.62e7 | 1.83e7 | inactive | Madm (MLF1-adaptor molecule) | DRSC12129
2.94e7 | – | – | 1.60e7 | – | inactive | AsnRS (Asparaginyl-tRNA synthetase) | DRSC01990
5.44e7 | 4.66e7 | – | 2.61e7 | 2.25e7 | inactive | wge (winged eye) | DRSC15246
5.27e7 | 5.77e7 | – | 2.28e7 | 2.32e7 | inactive | wge (winged eye) | DRSC15672
2.20e7 | 3.09e7 | – | 1.16e7 | 1.28e7 | inactive | Psc (Posterior sex combs) | DRSC07518
4.24e7 | 4.02e7 | – | 1.89e7 | 1.92e7 | inactive | Cda9 (Chitin deacetylase-like 9) | DRSC06593
4.44e7 | 5.62e7 | – | 2.10e7 | 3.91e7 | inactive | Golgin104 (Golgin 104) | DRSC10459
1.61e7 | 4.08e7 | – | 8.13e6 | 2.52e7 | inactive | CG30098 | DRSC05605
3.63e7 | 5.46e7 | – | 1.70e7 | 5.69e7 | inactive | CG5292 | DRSC15763
5.99e7 | 4.64e7 | – | 2.58e7 | 2.26e7 | inactive | GstE9 (Glutathione S transferase E9) | DRSC06679
4.62e7 | – | – | 2.18e7 | – | inactive | Lrr47 (Leucine-rich repeat 47) | DRSC03365
4.25e7 | – | – | 2.36e7 | – | inactive | Sirt1 (Sirtuin 1) | DRSC03435
3.52e7 | 3.90e7 | – | 1.61e7 | 1.94e7 | inactive | GstZ2 (Glutathione S transferase Z2) | DRSC16479
2.98e7 | 2.81e7 | – | 1.47e7 | 1.49e7 | inactive | hyd (hyperplastic discs) | DRSC16971
3.78e7 | 3.82e7 | – | 1.98e7 | 1.94e7 | inactive | CG6225 | DRSC15996
3.00e7 | 2.43e7 | – | 1.46e7 | 1.04e7 | inactive | CG13177 | DRSC06303
4.16e7 | 4.13e7 | – | 1.92e7 | 1.83e7 | inactive | lili (lilipod) | DRSC14143
